Like-named read-outs stand apart in the source and are kept apart here. These are yes or no findings as the source states them, for the method shown. Binding seen in cells or lysates may run through a third protein. Binding calls can cover weak binding; strength is not graded here. Sequences can lack the tags named with a protein.

In experiment [1] the target is T1, WalK-LgBIT (native WalK, sensor histidine kinase) (Staphylococcus aureus) (UniProt Q2FKN7).
T1 sequence: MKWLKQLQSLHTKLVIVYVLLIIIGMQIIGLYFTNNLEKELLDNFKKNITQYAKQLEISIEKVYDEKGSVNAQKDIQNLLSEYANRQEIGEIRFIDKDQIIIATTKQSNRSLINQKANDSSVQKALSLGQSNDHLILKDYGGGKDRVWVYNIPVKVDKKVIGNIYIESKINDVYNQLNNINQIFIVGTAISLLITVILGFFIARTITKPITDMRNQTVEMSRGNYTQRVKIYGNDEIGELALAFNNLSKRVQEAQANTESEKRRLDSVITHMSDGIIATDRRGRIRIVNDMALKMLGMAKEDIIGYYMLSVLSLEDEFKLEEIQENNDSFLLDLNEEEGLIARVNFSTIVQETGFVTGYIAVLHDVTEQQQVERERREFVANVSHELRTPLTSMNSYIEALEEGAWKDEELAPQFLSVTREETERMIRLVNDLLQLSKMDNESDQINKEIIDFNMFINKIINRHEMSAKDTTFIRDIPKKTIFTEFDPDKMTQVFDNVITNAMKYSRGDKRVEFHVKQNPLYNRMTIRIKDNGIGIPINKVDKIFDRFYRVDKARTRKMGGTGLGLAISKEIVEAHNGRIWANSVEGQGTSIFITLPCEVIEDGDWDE
Put plainly: split reporter.

Experiment [2] has as its target T1, WalK-LgBIT (native WalK, sensor histidine kinase) (Staphylococcus aureus). Put plainly: split reporter. This is another data set of the same source.

On to “WalK_(D53A/T101A) (as printed; taken as WalR D53A/T101A-SmBIT) (from UniProt Q2FKN8)”, for which the binding result in experiment [1] and in experiment [2] was “binds” in each case.
